Hit rate of the full screen: of about 1,400 compounds, fewer than 10 were called active.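 Rule for the calls: active = fluorescence-lowering compounds whose fitted half-maximal concentration is at or below ten times the highest valid dose tested; inconclusive = flat curve at 30 to 70% inhibition, or poor fit; inactive = the rest.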 This is one part of the list.

The chains behind the UniProt entries cited, without tags or fusion partners. Where a name states a change or a piece, a line headed by the entry shows the natural chain unless it says otherwise.
UniProt O15379: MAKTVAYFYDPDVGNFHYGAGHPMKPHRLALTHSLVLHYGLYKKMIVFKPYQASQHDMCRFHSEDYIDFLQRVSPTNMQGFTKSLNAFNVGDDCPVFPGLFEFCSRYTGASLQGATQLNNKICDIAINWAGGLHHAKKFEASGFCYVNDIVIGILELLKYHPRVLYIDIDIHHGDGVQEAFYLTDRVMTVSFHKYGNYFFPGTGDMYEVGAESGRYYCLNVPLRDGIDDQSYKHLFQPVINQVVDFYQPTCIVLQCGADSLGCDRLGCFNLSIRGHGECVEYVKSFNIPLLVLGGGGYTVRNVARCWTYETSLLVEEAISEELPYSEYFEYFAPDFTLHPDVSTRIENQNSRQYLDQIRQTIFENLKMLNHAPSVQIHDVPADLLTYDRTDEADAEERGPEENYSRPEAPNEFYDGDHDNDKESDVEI

This test addresses Histone deacetylase 3 (Homo sapiens) (UniProt O15379). In words: inhibition of human HDAC3 enzymatic activity – biochemical, fluorescence, cherry-picked samples, counter-screen for JMJD2C/GASC1 demethylase inhibitor project, dose response (AID 485318).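 Note: enzyme preincubated with compound before substrate and trypsin were added; 0% = neutral control wells and -100% = SAHA positive control wells.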 The conditions noted are these: recombinant HDAC3, fluorogenic peptide/trypsin coupled; at 12 µM (top of the series). A general note: The purpose of a counterscreen is to sort out artefacts and off-target activity.
In the case of `Cc1ccccc1NC(=O)C1CC(=O)OC12CCOC(C)(C)C2` (configuration not stated), the activity change, negative = inhibition was inactive: 0.0138%.
The value for `O=c1cnnc(Nc2ccccc2)[nH]1` was inactive: 0.0371%; that for `C[C@H](CO)N1C[C@H](C)[C@@H](CN(C)C(=O)Nc2ccccc2)Oc2c(NC(=O)c3ccncc3)cccc2C1=O` was inactive: 0.682%; that for `COc1ccc2cc(Br)ccc2c1CC(=O)NCCCN1CCOCC1` was inactive: 0.0769%.
Under `COC(=O)[C@]1(C)N[C@H](CN(C)S(=O)(=O)c2ccc(C)cc2)[C@@H]2C(=O)N(Cc3ccccc3)C(=O)[C@@H]21` stands inactive: -1.14%; under `COc1ccc(CN2CCNC(=O)C2CC(=O)NCc2csc(C(C)C)n2)c(OC)c1` (configuration not stated), inactive: -0.344%; under `O=S(=O)(c1ccc2ccccc2c1)N(CC(O)COCc1ccco1)c1ccccc1` (configuration not stated), inactive: 0.206%.
For `COc1ccc(CCNCCN2CCOCC2)cc1`, the activity change, negative = inhibition is inactive: -0.162%.
Take `CCc1ccc(CCC(=O)Nc2sc3c(c2C#N)CCCC3)o1`: the activity change, negative = inhibition is inactive: 0.915%.
Under `CN1N=C(C(F)(F)F)CC1=O` stands inactive: 0.111%; under `COc1ccc(C2CC(=O)C=C(NNS(=O)(=O)c3ccc(C)cc3)C2)cc1` (configuration not stated), inactive: 0.256%.
Under `CC(=O)c1nnn(-c2nc(N3CCCC3)nc(N(c3ccccc3)c3ccccc3)n2)c1C` stands inactive: 0.111%; under `O=C(NC1CCCCC1)NC1C2CC3CC(C2)CC1C3` (configuration not stated), inactive: 0.358%.
The value for `Cc1ccc(O)c(N=NC2=C(O)CC(C)(C)CC2=O)c1` was inactive: 0.227%; that for `CCOC(=O)c1c(S(=O)(=O)N2CCCC(C(=O)Nc3ccc(C)cn3)C2)c(C)n(C)c1C` (configuration not stated) was inactive: 0.917%; that for `Cc1noc(C)c1S(=O)(=O)N(C)C[C@H]1Oc2c(NC(=O)Nc3ccc(C(F)(F)F)cc3)cccc2C(=O)N([C@H](C)CO)C[C@@H]1C` was inactive: 0.591%.
As to `COc1ccc(NS(=O)(=O)c2cccc(C(=O)OCC(=O)Nc3cc(C)on3)c2)cc1`, the activity change, negative = inhibition was inactive: 0.336%.
For `O=S(=O)(NCCSCc1ccc(Cl)c(Cl)c1)c1ccc2c(c1)OCCO2`, the activity change, negative = inhibition is inactive: 0.904%.
Under `O=C(CCc1ccccc1)c1ccc2c(c1)OCCCO2` stands inactive: -0.39%.
Turning to `COc1ccc(NC(=O)O/N=C/c2ccccc2)cc1`, the activity change, negative = inhibition was inactive: 0.577%.
Under `CN(C)c1nc(C(=O)Nc2ccccc2)nc(N(C)C)n1` stands inactive: 0.331%.
Under `O=C(N/N=C/c1cc([N+](=O)[O-])cc([N+](=O)[O-])c1O)/C(=C\c1cccs1)NC(=O)c1ccccc1` stands inactive: -0.379%; under `Cc1onc(-c2ccccc2)c1C(=O)Nc1c(C)n(C)n(-c2ccccc2)c1=O`, inactive: 0.51%; under `O=C(Nc1ccccn1)c1ccc(C(=O)c2ccccc2)cc1`, inactive: -0.657%.
As for `CCOC(=O)c1sc2nc(N3CCOCC3)c3c(c2c1N)CCN(Cc1ccccc1)C3`, the activity change, negative = inhibition was inactive: 0.412%.
The value for `Nc1cccc(C(=O)Nc2ccco2)c1` was inactive: 0.108%.
Under `CC(=O)OCC1OC(OC2C[C@]3(C)C(CC(O)C4C([C@](C)(CCC=C(C)C)OC5OC(CO)C(O)C(O)C5O)CC[C@]43C)[C@@]3(C)CCC(O)C(C)(C)C23)C(O[C@@H]2OC(C)C(O)C(O)C2O)C(O)C1O` (some centres not stated) stands inactive: -0.13%; under `CN(C)c1ccc(C(=O)OCC(=O)N2CCCC2)cc1`, inactive: 0.251%.
Consider `COc1ccc(N(CC(=O)Nc2ccc(S(=O)(=O)N3CCCC3)cc2)S(C)(=O)=O)cc1OC`, for which the activity change, negative = inhibition was inactive: 0.611%.
The value for `Cc1cccc(NC(=O)CSc2cccc3cccnc23)c1` was inactive: 0.577%.
Regarding `Cc1occc1-c1nnc(SCC(=O)c2cc3ccccc3oc2=O)o1`, the activity change, negative = inhibition is inactive: 1.24%.
For `COc1ccc(OC)c(C2/C(=C(\O)c3ccc(OC)c(Cl)c3)C(=O)C(=O)N2CCN(C)C)c1` (configuration not stated), the activity change, negative = inhibition was inactive: 0.17%.
Under `O=[N+]([O-])c1ccc(/C=[N+](\[O-])[C@@H]2CCCC[C@@H]2/[N+]([O-])=C/c2ccc([N+](=O)[O-])o2)o1` stands inactive: 0.378%; under `Cc1ccccc1-n1nc(C)c2cc(C(=O)N3CCN(S(=O)(=O)c4ccc(F)cc4)CC3)sc21`, inactive: -0.325%; under `CC(=O)c1c(C(C)=O)c(C)n(NC(=O)c2ccncc2)c1C`, inactive: 0.563%.
As for `Cc1ccc(Nc2nc3nonc3nc2N(C)C)cc1`, the activity change, negative = inhibition was inactive: 0.249%.
The value for `CC[C@]12c3[nH]c4ccccc4c3CCN1C(=O)C(CC(=O)NCCCOC)C[C@@H]2C(=O)N1CCN(C(=O)c2ccco2)CC1` (some centres not stated) was inactive: 0.706%; that for `COc1ccc2c(C(=O)CN3CCN(c4ccccc4)CC3)c[nH]c2c1` was inactive: 0.364%.
Under `O=C(COC(=O)CCC(=O)c1cccs1)Nc1ccc(S(=O)(=O)N2CCOCC2)cc1` stands inactive: -0.226%.
The value for `COc1ccc(/C=C2\Sc3ccc(C(=O)N4CCCC4)cc3N(C)C2=O)cc1OC` was inactive: 0.723%; that for `CCOc1ccccc1Nc1nc2ccccc2n2cnnc12` was inactive: -0.135%; that for `Cc1cc(Cl)ccc1OCC(=O)N1CCCCC1` was inactive: 0.0312%.
As to `COc1ccc(-c2n[nH]c(=S)n2C2CCCCC2)cc1`, the activity change, negative = inhibition was inactive: 0.0074%.
In the case of `Nc1nc(C2CC(=O)OC23CCCCC3)cs1` (configuration not stated), the activity change, negative = inhibition was inactive: -1.75%.
Under `COc1cc(/C=N/N2CCN(c3ccccc3OC)CC2)ccc1O` stands inactive: 0.524%; under `CSc1nnnn1CCn1nnnc1SC`, inactive: -0.14%.
With `COc1ccccc1Cc1nnc(NC(=O)C2CCN(C(=O)c3ccco3)CC2)s1`, the activity change, negative = inhibition is inactive: 0.202%.
Under `CC1(C)CC2(CC(C)(C)N1)OC(=O)N1CCc3ccccc3C12C` (configuration not stated) stands inactive: 0.0279%.
The value for `CC(C)(C)c1ccc(S(=O)(=O)NCc2ccc(C(=O)N3CCCC3)cc2)cc1` was inactive: 0.701%; that for `N#CCCCCN1c2cccc3cccc(c23)S1(=O)=O` was inactive: 0.617%.
Under `COc1ccc(NC(=O)N(C)C[C@H]2Oc3c(NS(=O)(=O)c4cccs4)cccc3C(=O)N([C@H](C)CO)C[C@@H]2C)cc1` stands inactive: 0.309%; under `CCCn1c2ccccc2c2nnc(SCC(=O)Nc3c(C)n(C)n(-c4ccccc4)c3=O)nc21`, inactive: -0.294%.
Take `COc1ccc(OCC(=O)N/N=C/C(C)=C/c2ccco2)c(Br)c1`: the activity change, negative = inhibition is inactive: 0.0801%.
The value for `O=C(O)c1ccc2c(c1)nnn2C1CCCCC1` was inactive: 0.854%.
Under `COC(=O)C1CC(O)CN1C(=O)NC1CCCCC1` (configuration not stated) stands inactive: -0.391%; under `Cc1cc(Cl)ccc1OCC(=O)NCCCN1CCOCC1`, inactive: 0.459%.
As to `COc1ccc(C(=O)Nc2ncc3c(n2)CC(c2ccco2)CC3=O)cc1` (configuration not stated), the activity change, negative = inhibition is inactive: -0.124%.
Take `c1ccc(-c2csc(-n3cccn3)n2)cc1`: the activity change, negative = inhibition is inactive: 0.0513%.
The value for `CCCn1c(SCC(=O)Nc2c(C)cccc2CC)nnc1C(C)C` was inactive: -0.111%; that for `COc1cccc(S(=O)(=O)Nc2cccc(C(=O)N3CCCCCC3)c2)c1` was inactive: 0.765%; that for `O=C(NNC(=O)c1ccc(SCC2CCCO2)c([N+](=O)[O-])c1)c1ccc(Cl)c([N+](=O)[O-])c1` (configuration not stated) was inactive: 0.342%.
For `COc1ccc(NC(=O)NC(C)c2ccc3c(c2)OCO3)c(OC)c1` (configuration not stated), the activity change, negative = inhibition was inactive: -0.749%.
The value for `O=C(CN1C(=O)NC2(CCOc3ccccc32)C1=O)c1ccc[nH]1` (configuration not stated) was inactive: 0.405%.
Under `CC(C)CN(C(=O)c1ccc(N2CCCC2=O)cc1)c1c(N)n(Cc2ccccc2)c(=O)[nH]c1=O` stands inactive: 0.575%; under `O=c1cc(NC2CCCCCC2)[nH]c(=O)[nH]1`, inactive: 1.3%.
Under `CC(C)=CCN1CCN(Cc2cn[nH]c2C2CCCCC2)CC1CCO` (configuration not stated) stands inactive: -0.0508%; under `COc1ccc(CCC(=O)Nc2sccc2C#N)cc1`, inactive: 0.697%.
Consider `O=C(O)CCC(=O)Nc1nc2nc(-c3ccccc3)cc(-c3ccccc3)n2n1`, for which the activity change, negative = inhibition is inactive: 0.485%.
Under `O=C(Nc1ccc(Cl)cc1)N1CCN(c2ccccc2)CC1` stands inactive: 0.39%.
The value for `COc1ccc(CCN2C(=O)CC(NNC(=O)c3ccccc3Br)C2=O)cc1` (configuration not stated) was inactive: 0.241%; that for `CNC[C@H]1Oc2c(NS(=O)(=O)c3cccs3)cccc2C(=O)N([C@H](C)CO)C[C@@H]1C` was inactive: 0.325%; that for `Cc1ccccc1CN1C(=O)C(O)(CC(=O)c2ccncc2)c2ccccc21` (configuration not stated) was inactive: 0.426%.
Regarding `CC(OC(=O)c1ccc([N+](=O)[O-])s1)C(=O)Nc1ncc(Cl)cc1Cl` (configuration not stated), the activity change, negative = inhibition was inactive: 0.0687%.
The value for `CCOC(=O)c1c(C)[nH]c(C(=O)CN2CCOCC2)c1C` was inactive: 0.0897%; that for `O=C(NCCCN1CCCC1=O)c1cc(-c2cccnc2)nc2ccc(Cl)cc12` was inactive: 0.423%.
Consider `Cn1c(=O)n(C)c2cc(S(=O)(=O)N3CCOCC3)ccc21`, for which the activity change, negative = inhibition is inactive: 1.24%.
On to `CCOC(=O)Cc1csc(NC(=O)COc2cccc(C)c2)n1`, for which the activity change, negative = inhibition was inactive: 0.939%.
The value for `CS(=O)(=O)N(CCc1ccccc1)CC(=O)NCC1CCCO1` (configuration not stated) was inactive: 0.562%.
Under `Cc1cnn(C(=O)c2ccccc2Br)c1` stands inactive: 0.354%; under `CC1CCN(C(=O)CSc2nnc(CNC(=O)c3c(F)cccc3F)o2)CC1`, inactive: -0.34%.
The value for `CCn1c(=O)c(C(=O)CN2c3ccccc3CC2C)c(N)n(Cc2ccccc2)c1=O` (configuration not stated) was inactive: 0.906%; that for `Cn1c2ccccc2c(=O)c2ccc(NCCc3cccs3)cc21` was inactive: 0.689%; that for `COc1cccc(C(c2nnnn2CCc2ccccc2)N2CCN(c3ccccc3)CC2)c1OC` (configuration not stated) was inactive: -0.0474%.
For `Cc1ccc(CNC(=O)Cc2ccc(-c3ccccc3)cc2)cc1`, the activity change, negative = inhibition is inactive: -0.612%.
On to `CC(=O)Nc1ccc2c(c1)C(C)(C)C(C)N2C` (configuration not stated), for which the activity change, negative = inhibition is inactive: -1.19%.
The value for `CS(=O)(=O)NC1c2cccc3cccc(c23)C1Sc1nncn1/N=C/c1ccco1` (configuration not stated) was inactive: 0.4%.
The value for `N#CC(C(=O)NCCc1ccccc1)c1nc2ccccc2nc1N1CCOCC1` (configuration not stated) was inactive: -0.358%.

The record behind these values is PubChem BioAssay AID485318 (Broad Institute, 2010).
